Literature values, collected in patent publication US11414689B2, “Hydrolysis of steviol glycosides by beta-glucosidase” (Conagen Inc., priority 2017, dated 2022).

Conditions: as noted in taste tests; cited from earlier work

Which after-taste does the source give for `C=C1C[C@@]23CC[C@H]4[C@@](C)(CCC[C@@]4(C)C(=O)O[C@@H]4O[C@H](CO)[C@@H](O)[C@H](O)[C@H]4O)[C@@H]2CC[C@]1(O[C@@H]1O[C@H](CO)[C@@H](O)[C@H](O[C@@H]2O[C@H](CO)[C@@H](O)[C@H](O)[C@H]2O)[C@H]1O[C@@H]1O[C@H](CO)[C@@H](O)[C@H](O)[C@H]1O)C3` [Reb A, rebaudioside A] here?
The after-taste was “much better than stevioside”.

Which after-taste does the source give for `C=C1C[C@@]23CC[C@H]4[C@@](C)(CCC[C@@]4(C)C(=O)O[C@@H]4O[C@H](CO)[C@@H](O)[C@H](O)[C@H]4O[C@@H]4O[C@H](CO)[C@@H](O)[C@H](O)[C@H]4O)[C@@H]2CC[C@]1(O[C@@H]1O[C@H](CO)[C@@H](O)[C@H](O)[C@H]1O[C@@H]1O[C@H](CO)[C@@H](O)[C@H](O)[C@H]1O)C3` [Reb E, rebaudioside E] here?
Its after-taste is “much better than stevioside”.

Which after-taste does the source give for `C=C1C[C@@]23CC[C@H]4[C@@](C)(CCC[C@@]4(C)C(=O)O[C@@H]4O[C@H](CO)[C@@H](O)[C@H](O)[C@H]4O)[C@@H]2CC[C@]1(O[C@@H]1O[C@H](CO)[C@@H](O)[C@H](O)[C@H]1O[C@@H]1O[C@H](CO)[C@@H](O)[C@H](O)[C@H]1O)C3` [Stevioside, stevioside] here?
Its after-taste is “bitter after-taste”.
